In US20130065226A1, “METHOD OF DETERMINING DOSE AND ADMINISTRATION OF STATIN” (TOHOKU UNIVERSITY, priority 2011, published 2013):

Assay: Human study: plasma lipid profiles, glucose, insulin and HOMA-IR
Type: in vivo
Settings: healthy volunteers
Source text: The exclusion criteria included abnormal liver or kidney dysfunction before and during the statin administration and treatment.

[1] = 20 mg day^−1, after 2 weeks vs baseline
[2] = fasting, 20 mg day^−1 oral, 2 weeks

CC(C)c1c(C(=O)Nc2ccccc2)c(-c2ccccc2)c(-c2ccc(F)cc2)n1CC[C@@H](O)C[C@@H](O)CC(=O)O [atorvastatin]
Glucose, Change (%) [1]: 1% | HOMA-IR, Change (%) [1]: −5% | Insulin, Change (%) [1]: −6% | Glucose, After 2 weeks [2]: 98 ± 1.5 mg/dL | HOMA-IR, After 2 weeks [2]: 2.0 ± 0.1 | Insulin, After 2 weeks [2]: 8.3 ± 0.5 μIU ml^−1
